Results as given in article PMC5996148.
Several values for one entry are separate records, joined by “and”; a condition that tells them apart may be missing. Equal values may be shown once. This is one part of the list. For some assays here: Construct or isoform of the protein are uncertain.

The chains behind the UniProt entries cited, without tags or fusion partners.
UniProt Q9UIV1, whole entry: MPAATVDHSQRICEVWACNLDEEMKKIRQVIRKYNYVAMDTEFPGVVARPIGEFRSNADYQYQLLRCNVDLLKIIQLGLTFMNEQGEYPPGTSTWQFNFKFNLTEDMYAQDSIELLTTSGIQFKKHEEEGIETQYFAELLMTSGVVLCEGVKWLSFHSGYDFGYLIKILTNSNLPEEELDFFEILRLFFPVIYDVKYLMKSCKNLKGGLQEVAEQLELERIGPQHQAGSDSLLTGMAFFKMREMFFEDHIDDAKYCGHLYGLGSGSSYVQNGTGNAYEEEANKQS

Tests used:
Test in all cases: protein microarray (ProtoArray v5.0), streptavidin-Alexa Fluor 647
Settings in all cases: 3'-biotin; 20 mM Tris (pH 7.5), 5 mM MgCl2, 100 mM KCl, 0.1% Tween-20, A/T-rich and random oligonucleotide blockers; temperature not stated; high values mean tight binding
[1] = system: CDK6 (human)
[2] = system: CDKN2D (human)
[3] = system: CEACAM6 (human)
[4] = system: CENTD2 (human)
[5] = system: CHEK2 (human)
[6] = system: CHN1 (human)
[7] = system: CHRAC1 (human)
[8] = system: CIAPIN1 (human)
[9] = system: CKB (human)
[10] = system: CKLFSF5 (human)
[11] = system: CKM (human)
[12] = system: CLCF1 (human)
[13] = system: CLDN2 (human)
[14] = system: CLP1 (human)
[15] = target: T1, CLTA (UniProt P09496)
T1 sequence: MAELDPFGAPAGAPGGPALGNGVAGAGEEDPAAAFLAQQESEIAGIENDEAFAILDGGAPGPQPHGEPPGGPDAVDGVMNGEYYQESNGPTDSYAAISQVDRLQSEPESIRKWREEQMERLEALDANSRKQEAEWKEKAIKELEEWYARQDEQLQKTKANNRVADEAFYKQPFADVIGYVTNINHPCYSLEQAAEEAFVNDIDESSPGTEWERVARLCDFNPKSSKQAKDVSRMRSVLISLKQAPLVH

[16] = system: CLTB (human)
[17] = system: CLUL1 (human)
[18] = system: CNNM1 (human)
[19] = target: CNOT7 (UniProt Q9UIV1)
[20] = system: COASY (human)

GGTGACAGGGGTATGGGGAGGGG [G4-2 biotinylated (Ct1)]
binding signal [1]: -0.38 z-score
binding signal [2]: -0.398 z-score
binding signal [3]: -0.387 z-score
binding signal [4]: -0.382 z-score
binding signal [5]: -0.369 z-score
binding signal [6]: -0.395 z-score
binding signal [7]: -0.39 z-score
binding signal [8]: -0.384 z-score
binding signal [9]: -0.378 z-score
binding signal [10]: -0.391 z-score
binding signal [11]: -0.392 z-score
binding signal [12]: -0.393 z-score
binding signal [13]: -0.376 z-score
binding signal [14]: -0.383 z-score
binding signal [15]: -0.399 z-score
binding signal [16]: -0.403 z-score
binding signal [17]: -0.385 z-score
binding signal [18]: -0.362 z-score
binding signal [19]: -0.377 z-score
binding signal [20]: -0.383 z-score and -0.372 z-score
